# Source: EP4640694A1, “SELF-ASSEMBLING PEPTIDE” (CYTOPORT (TIANJIN) BIOTECHNOLOGY CO., LTD, priority 2022, dated 2025)
# Not every detail of the peptide structures is certain; ends, links or a residue may be inferred. Where a SMILES comes first, the peptide text is derived from it. [ ]: non-standard residue; d: D form. Hyp = O=C(O)[C@@H]1C[C@@H](O)CN1
# Assay: Rheological experiment, energy storage modulus (G') of peptide/serum mixture
# Format: physicochemical
# Conditions: 0.5% peptide, 10 v/v% fetal bovine serum, neutral pH
# Excerpt: Experimental Methods: Preparation of Self-Assembling Peptide Material Samples: 2 wt% of the self-assembling peptide solution obtained in Example 2 was used, the sequences as shown in SEQ ID NO:1 (IIIIGSIIGPGGDGPGGV), SEQ ID NO:2 (IIIIGSIIGPGGEGPGGV), SEQ ID NO:3 (IIIIGSIIGOGGEGPGGV), SEQ ID NO:4 (IIIIGSIIGOGGGEGPGGV), SEQ ID NO:5 (IIIIGSIIGOGGEGPGGGV), SEQ ID NO:6 (IIIIGSIIGOGGEGPGV), SEQ ID NO:7 (IIIIGSIIGOGAEGPGGV), SEQ ID NO:8 (IIIIIGSIIOGGAEGPGGV), SEQ ID NO:9 (IIIIIGSIIGOGGVGPGGV), and SEQ ID NO: 10 (IIIIIIGSIIGOGAEGPGGVGPGGV).
# Preparation of hydrogel samples formed by self-assembling peptide solutions in response to cell complete medium: 2 wt% of stock solution of self-assembling peptides obtained in Example 2 was diluted with phosphate buffer, added by fetal bovine serum to achieve a mixture solution with a final concentration of self-assembling peptide of 0.5%, a final concentration of serum of 10 v/v% with a neutral pH.
# The energy storage modulus (G') of the mixture solution was measured on a 20 mm plate using MARS 60 rheometer. In order to determine the rate of formation of three-dimensional nanomatrix, the solution was placed on a plate for testing immediately after preparation. A gap of 500µm was used, mineral oil was added to the gap to prevent dehydration of the samples, and data collection commenced immediately. […]
smiles,measurement,value
"CC[C@H](C)[C@H](N)C(=O)N[C@H](C(=O)N[C@H](C(=O)N[C@H](C(=O)N[C@H](C(=O)NCC(=O)N[C@@H](CO)C(=O)N[C@H](C(=O)N[C@H](C(=O)N1C[C@H](O)C[C@H]1C(=O)NCC(=O)NCC(=O)N[C@@H](C)C(=O)N[C@@H](CCC(=O)O)C(=O)NCC(=O)N1CCC[C@H]1C(=O)NCC(=O)NCC(=O)N[C@H](C(=O)O)C(C)C)[C@@H](C)CC)[C@@H](C)CC)[C@@H](C)CC)[C@@H](C)CC)[C@@H](C)CC)[C@@H](C)CC [SEQ ID NO:8, IIIIIGSIIOGGAEGPGGV] (H-IIIIIGSII[Hyp]GGAEGPGGV-OH)",self-assembly response to serum,completely lost its self-assembly response to serum
